Measured values reported in patent publication US5268308A (priority 1989, dated 1993).

System: Pyridostigmine Antibody
Assay: Sensitivity and useful range of the pyridostigmine RIA (standard curve)
Set-up: species or system rabbit (male New Zealand white)

CN(C)C(=O)Oc1ccc[n+](C)c1 [Pyridostigmine]
upper end of useful range of the standard curve: up to 10 ng per assay tube | lowest detectable quantity of pyridostigmine (biological/body fluid): 250 pg per 0.1 ml
